Values from PubChem BioAssay AID1259424 (University of Nebraska Medical Center, 2018)
Shown is one part, drawn at random, of about 14,000 reagents tested. 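Higher correlation or smaller distance means closer resemblance to KSR1 loss; control wells, including KSR1 knockdowns, recur on many plates.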 Further read-outs or replicates are left out here. The record does not give: the time to read-out.

Screen: 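Rank knockdowns across the genome by resemblance to the KSR1 depletion profile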 (primary screen)
Cell system: human HCT116 colon cancer cells
Reagent: siRNA pool against human genes, 50 nM
Detection: 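Log2 levels of six mRNAs (branched-DNA multiplex), adjusted by two reference genes and the non-targeting median, then scored against the average KSR1 knockdown pattern as Pearson r and euclidean distance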
Direction: mean correlation with KSR1 profile: higher = expression change more like KSR1 knockdown; mean distance from KSR1 profile: higher = expression change less like KSR1 knockdown

For CFL1 (GeneID 1072), how do the results read?
mean correlation with KSR1 profile: -0.333; mean distance from KSR1 profile: 4.02

For RWDD3 (GeneID 25950), what does the deposit list?
mean correlation with KSR1 profile: -0.187; mean distance from KSR1 profile: 1.44

What did the screen give for MAT1A (GeneID 4143)?
mean correlation with KSR1 profile: -0.192; mean distance from KSR1 profile: 2.15

How did the screen score NAXD (GeneID 55739)?
mean correlation with KSR1 profile: 0.259; mean distance from KSR1 profile: 2.46

Which result is listed for PTDSS2 (GeneID 81490)?
mean correlation with KSR1 profile: 0.79; mean distance from KSR1 profile: 0.851

With SMU1 (GeneID 55234), what was measured?
mean correlation with KSR1 profile: -0.463; mean distance from KSR1 profile: 3.27

What did the screen give for HIC2 (GeneID 23119)?
mean correlation with KSR1 profile: 0.56; mean distance from KSR1 profile: 1.56

For CNNM3 (GeneID 26505), what was measured?
mean correlation with KSR1 profile: 0.573; mean distance from KSR1 profile: 1.47

What did the screen give for ZNF490 (GeneID 57474)?
mean correlation with KSR1 profile: 0.168; mean distance from KSR1 profile: 1.29

For CAPZA2 (GeneID 830), how do the results read?
mean correlation with KSR1 profile: -0.375; mean distance from KSR1 profile: 2.02

What is on record for GPS1 (GeneID 2873)?
mean correlation with KSR1 profile: -0.46; mean distance from KSR1 profile: 3

How did the screen score MYH14 (GeneID 79784)?
mean correlation with KSR1 profile: 0.836; mean distance from KSR1 profile: 1.9

How did the screen score NSMF (GeneID 26012)?
mean correlation with KSR1 profile: 0.186; mean distance from KSR1 profile: 1.55

For PTPRN (GeneID 5798), what was measured?
mean correlation with KSR1 profile: -0.102; mean distance from KSR1 profile: 1.23

For KLKB1 (GeneID 3818), how do the results read?
mean correlation with KSR1 profile: 0.214; mean distance from KSR1 profile: 2.11

For RXYLT1 (GeneID 10329), what was measured?
mean correlation with KSR1 profile: 0.0649; mean distance from KSR1 profile: 2.34

For RPL3L (GeneID 6123), what does the deposit list?
mean correlation with KSR1 profile: 0.302; mean distance from KSR1 profile: 2.54

For OR1F2P (GeneID 26184), how do the results read?
mean correlation with KSR1 profile: -0.404; mean distance from KSR1 profile: 3.44

With RSU1 (GeneID 6251), what does the deposit list?
mean correlation with KSR1 profile: -0.0242; mean distance from KSR1 profile: 1.85

3 consecutive reagents already listed, quoted:
KLKB1 (GeneID 3818) — mean correlation with KSR1 profile: 0.214; mean distance from KSR1 profile: 2.11
RXYLT1 (GeneID 10329) — mean correlation with KSR1 profile: 0.0649; mean distance from KSR1 profile: 2.34
RPL3L (GeneID 6123) — mean correlation with KSR1 profile: 0.302; mean distance from KSR1 profile: 2.54
